Measurements from publication PMC3591447.
Results are given in words; binding and its absence hold for the method and conditions named. In cells and extracts the contact can be indirect. Some binding calls cover weakened binding; strength is not graded here. Values belong to the substance of their own block, whether it stands above or below them.

Sequences of proteins named here, by UniProt entry; tags and fusion partners are left off.
UniProt Q7Z6B7: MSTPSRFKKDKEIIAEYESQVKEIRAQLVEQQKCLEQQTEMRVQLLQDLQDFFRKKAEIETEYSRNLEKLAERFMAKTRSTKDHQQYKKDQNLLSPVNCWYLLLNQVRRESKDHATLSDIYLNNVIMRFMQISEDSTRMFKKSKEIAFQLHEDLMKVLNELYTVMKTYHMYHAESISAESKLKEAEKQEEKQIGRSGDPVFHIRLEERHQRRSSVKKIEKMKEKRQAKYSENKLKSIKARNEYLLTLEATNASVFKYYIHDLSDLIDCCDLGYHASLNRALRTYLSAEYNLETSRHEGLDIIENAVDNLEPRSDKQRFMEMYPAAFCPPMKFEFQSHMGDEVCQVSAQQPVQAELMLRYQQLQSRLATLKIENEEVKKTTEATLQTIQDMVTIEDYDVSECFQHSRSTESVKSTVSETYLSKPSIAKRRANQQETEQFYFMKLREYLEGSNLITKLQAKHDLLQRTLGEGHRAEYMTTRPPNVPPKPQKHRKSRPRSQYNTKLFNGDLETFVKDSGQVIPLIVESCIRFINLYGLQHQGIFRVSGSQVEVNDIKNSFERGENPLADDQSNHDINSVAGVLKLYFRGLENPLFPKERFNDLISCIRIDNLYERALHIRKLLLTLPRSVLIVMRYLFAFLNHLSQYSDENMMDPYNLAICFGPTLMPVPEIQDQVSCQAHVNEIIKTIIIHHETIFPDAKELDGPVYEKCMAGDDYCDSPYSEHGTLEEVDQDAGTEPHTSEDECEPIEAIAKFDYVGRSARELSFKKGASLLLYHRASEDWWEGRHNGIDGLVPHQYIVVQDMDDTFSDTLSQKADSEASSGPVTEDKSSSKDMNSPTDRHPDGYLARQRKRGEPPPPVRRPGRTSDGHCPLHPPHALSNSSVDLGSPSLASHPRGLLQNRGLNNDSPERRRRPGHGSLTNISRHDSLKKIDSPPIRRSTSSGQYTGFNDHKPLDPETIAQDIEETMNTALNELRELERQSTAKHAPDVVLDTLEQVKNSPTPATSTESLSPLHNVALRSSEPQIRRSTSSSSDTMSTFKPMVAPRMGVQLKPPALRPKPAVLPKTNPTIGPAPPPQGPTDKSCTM
UniProt O43295: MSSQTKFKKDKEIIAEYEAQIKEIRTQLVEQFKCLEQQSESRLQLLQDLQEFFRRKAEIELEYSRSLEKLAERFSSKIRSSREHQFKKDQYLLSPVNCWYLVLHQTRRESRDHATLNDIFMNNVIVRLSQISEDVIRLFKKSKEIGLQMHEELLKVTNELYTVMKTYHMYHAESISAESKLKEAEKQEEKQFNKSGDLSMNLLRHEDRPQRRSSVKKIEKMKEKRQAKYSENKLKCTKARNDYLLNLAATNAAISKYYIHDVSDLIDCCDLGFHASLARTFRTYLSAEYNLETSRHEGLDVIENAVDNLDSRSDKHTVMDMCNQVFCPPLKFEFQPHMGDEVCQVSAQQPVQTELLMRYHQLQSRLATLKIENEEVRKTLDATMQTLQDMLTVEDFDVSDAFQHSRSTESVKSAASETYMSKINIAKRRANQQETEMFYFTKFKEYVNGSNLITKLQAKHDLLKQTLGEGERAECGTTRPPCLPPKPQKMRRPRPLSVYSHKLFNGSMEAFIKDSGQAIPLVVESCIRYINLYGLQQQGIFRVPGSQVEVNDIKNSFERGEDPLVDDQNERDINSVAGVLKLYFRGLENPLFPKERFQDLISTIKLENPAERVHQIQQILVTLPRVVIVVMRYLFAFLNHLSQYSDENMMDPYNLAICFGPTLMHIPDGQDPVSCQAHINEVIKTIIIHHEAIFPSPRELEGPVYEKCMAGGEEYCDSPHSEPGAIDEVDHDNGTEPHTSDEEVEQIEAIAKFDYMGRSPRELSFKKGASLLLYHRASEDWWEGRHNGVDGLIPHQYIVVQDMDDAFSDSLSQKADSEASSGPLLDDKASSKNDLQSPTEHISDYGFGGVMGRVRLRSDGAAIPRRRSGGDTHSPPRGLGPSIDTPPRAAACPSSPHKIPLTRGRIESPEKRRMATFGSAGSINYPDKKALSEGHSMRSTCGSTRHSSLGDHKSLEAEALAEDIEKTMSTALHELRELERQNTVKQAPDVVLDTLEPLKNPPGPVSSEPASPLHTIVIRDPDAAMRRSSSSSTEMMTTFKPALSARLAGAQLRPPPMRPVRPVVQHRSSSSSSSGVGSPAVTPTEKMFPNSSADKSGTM
UniProt Q812A2: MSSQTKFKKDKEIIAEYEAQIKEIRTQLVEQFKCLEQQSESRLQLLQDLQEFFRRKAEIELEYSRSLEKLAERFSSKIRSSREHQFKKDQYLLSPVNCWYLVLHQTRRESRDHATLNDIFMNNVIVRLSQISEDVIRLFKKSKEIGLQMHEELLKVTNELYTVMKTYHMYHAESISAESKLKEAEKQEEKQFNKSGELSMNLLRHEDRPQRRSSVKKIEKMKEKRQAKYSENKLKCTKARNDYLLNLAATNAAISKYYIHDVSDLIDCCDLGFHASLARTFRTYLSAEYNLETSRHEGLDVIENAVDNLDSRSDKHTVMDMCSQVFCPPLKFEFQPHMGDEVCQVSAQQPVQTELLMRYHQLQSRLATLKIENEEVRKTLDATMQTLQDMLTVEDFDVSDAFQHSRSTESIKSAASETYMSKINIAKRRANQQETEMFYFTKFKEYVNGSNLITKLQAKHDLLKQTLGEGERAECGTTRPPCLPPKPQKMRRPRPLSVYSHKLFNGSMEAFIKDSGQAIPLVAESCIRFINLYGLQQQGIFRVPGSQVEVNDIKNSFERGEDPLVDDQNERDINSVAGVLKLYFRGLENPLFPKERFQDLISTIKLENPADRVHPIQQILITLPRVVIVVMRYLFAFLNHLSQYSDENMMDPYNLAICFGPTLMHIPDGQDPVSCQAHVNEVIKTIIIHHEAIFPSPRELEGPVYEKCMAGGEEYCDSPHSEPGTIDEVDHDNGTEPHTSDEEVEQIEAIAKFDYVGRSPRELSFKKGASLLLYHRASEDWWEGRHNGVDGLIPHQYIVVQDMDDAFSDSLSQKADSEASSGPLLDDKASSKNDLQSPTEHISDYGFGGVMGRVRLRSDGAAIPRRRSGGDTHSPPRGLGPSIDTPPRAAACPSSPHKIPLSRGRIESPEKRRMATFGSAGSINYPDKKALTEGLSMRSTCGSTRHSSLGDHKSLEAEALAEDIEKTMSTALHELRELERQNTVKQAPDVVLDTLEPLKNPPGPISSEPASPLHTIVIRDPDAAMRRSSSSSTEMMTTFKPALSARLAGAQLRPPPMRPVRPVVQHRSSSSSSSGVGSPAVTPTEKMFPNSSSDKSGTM

Legend:
[1] = target: endogenous srGAP2 of Neuro2a cells (mouse (endogenous in Neuro2a)) (UniProt Q91Z67); test: co-IP; endogenous proteins; Neuro2a lysates precipitated with srGAP2 (2A2) and srGAP3 (3A1) antibodies, blot with srGAP3 antibody 3A3
[2] = target: GFP-tagged full-length srGAP2 R527A (human) (UniProt O75044); test: co-IP; non-tagged srGAP3 and GFP-tagged srGAPs co-transfected into HEK293FT; lysed 24-36 h later in nuclear lysis buffer (20 mM Tris-Cl pH 7.8, 125 mM NaCl, 5 mM MgCl2, 0.2 mM EDTA, 12% glycerol, 0.1% NP-40); precipitated with GFP antibody on protein A/G beads; blot with srGAP3 antibody 3A1
[3] = target: GFP-tagged full-length srGAP1 (srGAP1-WT) (human) (UniProt Q7Z6B7); test: as above
[4] = target: GFP-tagged full-length srGAP2 (srGAP2-WT) (human) (UniProt O75044); test: as above
[5] = target: GFP-tagged full-length srGAP3 (srGAP3-WT) (human) (UniProt O43295); test: as above

- binding [1]: binds
Substance: endogenous srGAP3 of Neuro2a cells (from UniProt Q812A2 1-1099)

- binding [2]: binds
- binding [3]: binds
- binding [4]: binds
Substance: non-tagged srGAP3 (from UniProt O43295 1-1099)

- binding [5]: binds
Substance: GFP-tagged full-length srGAP3 (srGAP3-WT) (from UniProt O43295 1-1099)
